These results are taken from article PMC7886514.

No constants are given. Whether binding was seen depends on the method and setting. In cells and extracts the contact can be indirect. Binding can be weak; no strength is given.

The assay concerns the target T1, I-κB kinase-ε (mouse (endogenous in heart tissue)) (UniProt Q9R0T8).
T1 sequence: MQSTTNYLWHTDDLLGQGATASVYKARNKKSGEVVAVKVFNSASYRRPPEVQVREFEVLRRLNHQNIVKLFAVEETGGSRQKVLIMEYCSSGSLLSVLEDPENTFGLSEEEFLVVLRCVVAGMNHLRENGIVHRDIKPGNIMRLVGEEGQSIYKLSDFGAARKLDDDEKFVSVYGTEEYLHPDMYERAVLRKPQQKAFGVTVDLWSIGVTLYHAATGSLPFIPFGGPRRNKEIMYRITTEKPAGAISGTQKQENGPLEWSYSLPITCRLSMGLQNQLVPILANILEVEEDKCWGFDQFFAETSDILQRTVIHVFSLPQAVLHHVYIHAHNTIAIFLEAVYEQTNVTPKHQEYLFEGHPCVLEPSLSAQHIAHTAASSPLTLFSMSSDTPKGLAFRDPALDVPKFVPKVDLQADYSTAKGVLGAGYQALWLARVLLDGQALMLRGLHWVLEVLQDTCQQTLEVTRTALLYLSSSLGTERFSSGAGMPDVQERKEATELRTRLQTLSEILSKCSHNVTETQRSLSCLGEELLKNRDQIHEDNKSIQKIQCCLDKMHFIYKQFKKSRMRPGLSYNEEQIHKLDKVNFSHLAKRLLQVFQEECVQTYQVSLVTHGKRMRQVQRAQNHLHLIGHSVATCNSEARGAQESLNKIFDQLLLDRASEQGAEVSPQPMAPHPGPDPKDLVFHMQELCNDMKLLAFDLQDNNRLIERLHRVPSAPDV
The experiment in a line: co-IP; heart tissue proteins of WT mice stimulated with saline or Ang II for 8 weeks; precleared with Protein G magnetic beads; precipitated with 3 μg anti-IKKε antibody overnight; immunoblot with anti-IKKε, anti-MEK1/2, anti-ERK1/2 and anti-p38 antibodies. On the technique in general: Immunoblotting shows a protein as a band on a membrane.

Consider “extracellular signal-regulated kinase (mouse (endogenous in heart tissue))”, for which the binding result is “binds”.
